Measurements reported in PubChem BioAssay AID602196 (INSERM, 2012).

Test: 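Genes whose knock-down alters cisplatin killing of lung cancer cells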
System: human A549 lung cancer cells
Reagent: siRNA pair against human genes
Timing: 48 h transfection before cisplatin; time from cisplatin to read-out not stated
Challenge: cisplatin at a dose killing half of control-siRNA cells; exact dose and duration not given
Measurement: 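Shift in cisplatin death relative to control siRNA, from -50 (all cells die) to +50 (no cells die); siRNAs harmful on their own scored 0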
Reading the numbers: two-siRNA summed score (-2 to +2): higher = both siRNAs protect from cisplatin killing; -2 means both sensitise; mean protection from cisplatin (shift in death): higher = protection from cisplatin killing
Call rule: 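Each siRNA scores 0 if harmful alone by LDH or WST-1, otherwise +1 if it reduces and -1 if it increases cisplatin killing; a gene is active when both siRNAs agree (sum +2 or -2)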
Meaning of the calls: active = both siRNAs shift cisplatin killing the same way; inactive = no consistent shift, or siRNA harmful alone
The deposit covers about 23,000 reagents; shown is a part drawn at random. Over the whole deposit, 455 (2%) got an active call. 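Active includes both protection and sensitisation; some change values fall well beyond the stated -50 to +50 range.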 A number with no mark means an inactive call. Not all columns of the deposit are shown. Reagent sequences are not shown. Not stated in the record: the amount of reagent.

{"gene knocked down":"KCNK13","two-siRNA summed score (-2 to +2)":0,"mean protection from cisplatin (shift in death) (%)":0.7}
{"gene knocked down":"FMO2","two-siRNA summed score (-2 to +2)":0,"mean protection from cisplatin (shift in death) (%)":5.6}
{"gene knocked down":"LOC441921","two-siRNA summed score (-2 to +2)":0,"mean protection from cisplatin (shift in death) (%)":29.1}
{"gene knocked down":"IL6R","two-siRNA summed score (-2 to +2)":-1,"mean protection from cisplatin (shift in death) (%)":-27.3}
{"gene knocked down":"CFAP206","two-siRNA summed score (-2 to +2)":0,"mean protection from cisplatin (shift in death) (%)":3.9}
{"gene knocked down":"LOC402146","two-siRNA summed score (-2 to +2)":0,"mean protection from cisplatin (shift in death) (%)":18.6}
{"gene knocked down":"MYO16","two-siRNA summed score (-2 to +2)":0,"mean protection from cisplatin (shift in death) (%)":6.9}
{"gene knocked down":"CASTOR3P","two-siRNA summed score (-2 to +2)":-1,"mean protection from cisplatin (shift in death) (%)":-7.2}
{"gene knocked down":"TMEM217","two-siRNA summed score (-2 to +2)":-1,"mean protection from cisplatin (shift in death) (%)":-9.2}
{"gene knocked down":"ZNF516-DT","two-siRNA summed score (-2 to +2)":0,"mean protection from cisplatin (shift in death) (%)":4.9}
{"gene knocked down":"LOC440192","two-siRNA summed score (-2 to +2)":0,"mean protection from cisplatin (shift in death) (%)":8.9}
{"gene knocked down":"ANKEF1","two-siRNA summed score (-2 to +2)":0,"mean protection from cisplatin (shift in death) (%)":2.3}
{"gene knocked down":"POFUT4","two-siRNA summed score (-2 to +2)":0,"mean protection from cisplatin (shift in death) (%)":-9.4}
{"gene knocked down":"SLC52A3","two-siRNA summed score (-2 to +2)":1,"mean protection from cisplatin (shift in death) (%)":10.3}
{"gene knocked down":"POLR1B","two-siRNA summed score (-2 to +2)":0,"mean protection from cisplatin (shift in death) (%)":-0.3}
{"gene knocked down":"NPR1","two-siRNA summed score (-2 to +2)":0,"mean protection from cisplatin (shift in death) (%)":7.6}
{"gene knocked down":"KRTAP10-4","two-siRNA summed score (-2 to +2)":0,"mean protection from cisplatin (shift in death) (%)":14.2}
{"gene knocked down":"NXF3","two-siRNA summed score (-2 to +2)":0,"mean protection from cisplatin (shift in death) (%)":20.2}
{"gene knocked down":"LAMC1","two-siRNA summed score (-2 to +2)":-1,"mean protection from cisplatin (shift in death) (%)":-12.2}
{"gene knocked down":"LOC145788","two-siRNA summed score (-2 to +2)":0,"mean protection from cisplatin (shift in death) (%)":21.8}
{"gene knocked down":"LOC441900","two-siRNA summed score (-2 to +2)":1,"mean protection from cisplatin (shift in death) (%)":25}

Ordered by “mean protection from cisplatin (shift in death) (%)” (ascending): some entries from above
{"gene knocked down":"ZNF516-DT","two-siRNA summed score (-2 to +2)":0,"mean protection from cisplatin (shift in death) (%)":4.9}
{"gene knocked down":"LOC440192","two-siRNA summed score (-2 to +2)":0,"mean protection from cisplatin (shift in death) (%)":8.9}
